## Cell number after 72 h of treatment

From a melanoma drug combination screen (doi:10.1371/journal.pone.0140310); values rounded.

All values are for the listed drug together with dorsomorphin (0.4 µM): c1cc(-c2cnn3cc(-c4ccc(OCCN5CCCCC5)cc4)cnc23)ccn1

Drugs:
vatalanib, 2 µM: Clc1ccc(Nc2nnc(Cc3ccncc3)c3ccccc23)cc1
GW2580, 1 µM: COc1ccc(COc2ccc(Cc3cnc(N)nc3N)cc2OC)cc1
BI-78D3, 0.2 µM: O=c1[nH]nc(Sc2ncc([N+](=O)[O-])s2)n1-c1ccc2c(c1)OCCO2
indole-3-carbinol, 0.8 µM: OCc1c[nH]c2ccccc12
lapatinib, 0.8 µM: CS(=O)(=O)CCNCc1ccc(-c2ccc3ncnc(Nc4ccc(OCc5cccc(F)c5)c(Cl)c4)c3c2)o1
vismodegib, 1 µM: CS(=O)(=O)c1ccc(C(=O)Nc2ccc(Cl)c(-c3ccccn3)c2)c(Cl)c1
A-769662, 2 µM: N#Cc1c(O)c2c(-c3ccc(-c4ccccc4O)cc3)csc2[nH]c1=O
bexarotene, 2 µM: C=C(c1ccc(C(=O)O)cc1)c1cc2c(cc1C)C(C)(C)CCC2(C)C
nilutamide, 1 µM: CC1(C)NC(=O)N(c2ccc([N+](=O)[O-])c(C(F)(F)F)c2)C1=O
stibogluconate, 2 µM: O=C(O)[C@@H]1[O][Sb](=[O])([O][Sb]2(=[O])[O][C@H]([C@H](O)CO)[C@H](O)[C@H](C(=O)O)[O]2)[O][C@H]([C@H](O)CO)[C@@H]1O (stereo partly drawn)
U73122, 0.4 µM: COc1ccc2c(c1)CCC1C2CCC2(C)C(NCCCCCCN3C(=O)C=CC3=O)CCC12 (stereo not drawn)
Src-I1, 2 µM: COc1cc2ncnc(Nc3ccc(Oc4ccccc4)cc3)c2cc1OC
tipifarnib, 0.01 µM: Cn1cncc1[C@@](N)(c1ccc(Cl)cc1)c1ccc2c(c1)c(-c1cccc(Cl)c1)cc(=O)n2C
tanespimycin, 0.002 µM: C=CCNC1=C2C[C@@H](C)C[C@H](OC)[C@H](O)[C@@H](C)/C=C(\C)[C@H](OC(N)=O)[C@@H](OC)/C=C\C=C(/C)C(=O)NC(=CC1=O)C2=O
KU-0063794, 0.02 µM: COc1ccc(-c2ccc3c(N4CCOCC4)nc(N4C[C@@H](C)O[C@@H](C)C4)nc3n2)cc1CO
enzastaurin, 0.8 µM: Cn1cc(C2=C(c3cn(C4CCN(Cc5ccccn5)CC4)c4ccccc34)C(=O)NC2=O)c2ccccc21
lestaurtinib, 0.004 µM: C[C@]12O[C@H](C[C@]1(O)CO)n1c3ccccc3c3c4c(c5c6ccccc6n2c5c31)CNC4=O
GSK0660, 1 µM: COC(=O)c1sccc1S(=O)(=O)Nc1ccc(Nc2ccccc2)cc1OC
crizotinib, 0.2 µM: C[C@@H](Oc1cc(-c2cnn(C3CCNCC3)c2)cnc1N)c1c(Cl)ccc(F)c1Cl
KU-55933, 1 µM: O=c1cc(-c2cccc3c2Sc2ccccc2S3)oc(N2CCOCC2)c1
MK-2206, 0.4 µM: NC1(c2ccc(-c3nc4ccn5c(=O)[nH]nc5c4cc3-c3ccccc3)cc2)CCC1
BI-D1870, 0.2 µM: CC(C)CCN1c2nc(Nc3cc(F)c(O)c(F)c3)ncc2N(C)C(=O)C1C (stereo not drawn)
SNS-314, 0.0008 µM: O=C(Nc1cccc(Cl)c1)Nc1ncc(CCNc2ncnc3ccsc23)s1
ruxolitinib, 1 µM: N#CC[C@H](C1CCCC1)n1cc(-c2ncnc3[nH]ccc23)cn1
PF-562271, 0.08 µM: CN(c1ncccc1CNc1nc(Nc2ccc3c(c2)CC(=O)N3)ncc1C(F)(F)F)S(C)(=O)=O

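Human melanoma cell lines in 1,536-well plates were treated with a pair of drugs for 72 h, then fixed, stained and imaged. Values are the number of DAPI-stained nuclei as a percentage of the DMSO control: 100 is no effect, lower means fewer cells. Every drug was used at one fixed concentration, the lower of two screened (a fifth of the higher). The file gives one value for each pair and line, without errors, so small differences may be noise.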 This is part of the screen, not chosen by result. An entry leaves out what has no value listed here.

lapatinib gave A101D: 97.8; 501mel: 79.3; A2058: 107.
MK-2206 gave A101D: 91.4; 501mel: 68.0; A2058: 86.3.
A-769662 gave A101D: 115; 501mel: 86.5; A2058: 110; A375: 89.6.
nilutamide gave A101D: 93.6; 501mel: 90.9; A2058: 101; A375: 85.6.
BI-78D3 gave A101D: 99.4; 501mel: 86.7; A2058: 96.8.
KU-0063794 gave A101D: 103; 501mel: 85.6; A2058: 99.1; A375: 107.
lestaurtinib gave A101D: 88.6; 501mel: 75.0; A2058: 107.
crizotinib gave A101D: 96.3; 501mel: 79.7; A2058: 114.
vatalanib gave A101D: 83.0; 501mel: 100; A2058: 94.4.
vismodegib gave A101D: 99.1; 501mel: 77.3; A2058: 104.
Src-I1 gave A101D: 117; 501mel: 97.3; A2058: 116; A375: 112.
BI-D1870 gave A101D: 87.0; 501mel: 81.6; A2058: 106; A375: 95.9.
bexarotene gave A101D: 101; A2058: 101.
GSK0660 gave A101D: 106; 501mel: 105; A2058: 109; A375: 98.5.
SNS-314 gave A101D: 96.4; 501mel: 113; A2058: 99.8; A375: 95.1.
KU-55933 gave A101D: 105; 501mel: 88.4; A2058: 101; A375: 88.2.
PF-562271 gave A101D: 87.8; 501mel: 82.1; A2058: 80.1.
GW2580 gave A101D: 115; 501mel: 74.4; A2058: 106; A375: 85.4.
tipifarnib gave A101D: 80.4; 501mel: 88.8; A2058: 87.4; A375: 69.3.
enzastaurin gave A101D: 96.1; 501mel: 101; A2058: 103.
indole-3-carbinol gave A101D: 95.0; 501mel: 67.0; A2058: 97.8.
U73122 gave A101D: 87.2; 501mel: 83.0; A2058: 103; A375: 81.2.
ruxolitinib gave A101D: 121; A2058: 103.
stibogluconate gave A101D: 119; 501mel: 70.8; A2058: 100.
tanespimycin gave A101D: 101; A2058: 97.4.